# Library screening results

The chains behind the UniProt entries cited, without tags or fusion partners.
UniProt E9BF75, entry or part of it: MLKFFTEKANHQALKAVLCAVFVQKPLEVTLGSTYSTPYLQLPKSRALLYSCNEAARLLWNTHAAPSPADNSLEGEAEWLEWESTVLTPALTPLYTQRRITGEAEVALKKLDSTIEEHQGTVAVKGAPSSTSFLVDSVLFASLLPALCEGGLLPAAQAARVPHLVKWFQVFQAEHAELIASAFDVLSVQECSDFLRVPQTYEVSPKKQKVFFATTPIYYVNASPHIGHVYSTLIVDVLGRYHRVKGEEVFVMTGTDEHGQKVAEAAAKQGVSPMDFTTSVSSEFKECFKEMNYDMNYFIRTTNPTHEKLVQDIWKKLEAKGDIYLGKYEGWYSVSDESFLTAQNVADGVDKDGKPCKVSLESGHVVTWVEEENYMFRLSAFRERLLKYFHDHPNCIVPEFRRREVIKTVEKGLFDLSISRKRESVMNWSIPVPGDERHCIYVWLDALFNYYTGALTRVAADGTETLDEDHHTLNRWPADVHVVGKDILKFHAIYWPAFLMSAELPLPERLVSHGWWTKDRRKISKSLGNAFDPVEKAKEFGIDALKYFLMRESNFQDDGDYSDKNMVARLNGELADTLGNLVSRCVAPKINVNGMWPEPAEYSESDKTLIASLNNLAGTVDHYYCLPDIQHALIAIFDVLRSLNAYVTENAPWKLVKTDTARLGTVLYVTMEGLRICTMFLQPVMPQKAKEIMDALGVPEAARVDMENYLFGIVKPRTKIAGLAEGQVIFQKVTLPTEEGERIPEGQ

All values are in %. The controls that fix the scale are not given in the record; negative values are as filed. This is an unselected part of the compounds tested.

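Primary screen of methionyl-tRNA synthetase; the read-out is not stated. Target: Methionyl-tRNA synthetase (putative), Leishmania donovani (UniProt E9BF75). The test concentration is not given. Values are per cent inhibition. Size under these conditions: about 68,000 compounds, about 24 of them at 50% or above in at least one test.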

{"smiles": "CCC1=N[C@@]2(CC[C@@H]3CN(C(=O)NCc4ccccc4C)C[C@@H]32)C(=O)N1", "Inhibition": 2}
{"smiles": "Cc1nc2ccccc2n1Cc1cc(C(=O)NC2CCOC2)no1", "stereo": "stereo not shown", "Inhibition": 8.602}
{"smiles": "CCCN(C(=O)CNC1CCc2ncnn2C1)C1=CCCCC1", "stereo": "stereo not shown", "Inhibition": 9.774}
{"smiles": "O[C@H]1CN(Cc2ccc3c(c2)OCCO3)CC[C@@]12CCCO2", "Inhibition": 16.72}
{"smiles": "NC(=O)COc1ccc(C2NC(=O)CN2Cc2ccc(Br)cc2)cc1", "stereo": "stereo not shown", "Inhibition": 14.71}
{"smiles": "CCc1ccccc1CN1CC[C@@H](NC(=O)c2cccnc2)[C@H](O)C1", "Inhibition": 12.39}
{"smiles": "COC(=O)CC(NC(=O)CCn1cccn1)c1ccc(C)cc1", "stereo": "stereo not shown", "Inhibition": 17.96}
{"smiles": "COCCN1C(=O)CO[C@H]2CN(S(=O)(=O)c3ccccc3)C[C@H]21", "Inhibition": 10.44}
{"smiles": "NC(=O)CCn1ccc(NC(=O)c2ccc(Br)o2)n1", "Inhibition": 18.39}
{"smiles": "COCc1cncc2c1CCN(Cc1ccccn1)C2", "Inhibition": 18.1}
{"smiles": "Cc1c(C(=O)N2CC(=O)N(C)C2)nnn1-c1cccc2cccnc12", "Inhibition": 12.09}
{"smiles": "Cc1nc(CNCc2ccc(OC34CCCN(CC3)C4)cc2)n[nH]1", "stereo": "stereo not shown", "Inhibition": 21.59}
{"smiles": "O=C(C1CCCC1)N1CCOc2cccc(F)c21", "Inhibition": 13.09}
{"smiles": "CCc1ocnc1C(=O)N1CCN(c2ccc3ccccc3c2)CC1", "Inhibition": 8.517}
{"smiles": "COc1ccnc(N2CCC3(CCCN(C(C)C)C3=O)C2)n1", "stereo": "stereo not shown", "Inhibition": 12.21}
{"smiles": "CN1CCOCC2(CCCN(C(=O)c3ccccc3F)C2)C1", "stereo": "stereo not shown", "Inhibition": -4.667}
{"smiles": "Cc1nc(N2CCCC2)ncc1-c1cc(O)n2ncnc2n1", "Inhibition": -11.81}
{"smiles": "CSCC(=O)N1CCc2c(cnc(C)c2-c2noc(-c3cscn3)n2)C1", "Inhibition": 6.091}
{"smiles": "O=C(CN1CCCS(=O)(=O)CC1)NCc1ccccc1F", "Inhibition": 17.58}
{"smiles": "CCn1ccnc1CN1CCC(=O)N(CC2CC2)C(C(C)C)C1", "stereo": "stereo not shown", "Inhibition": 4.897}
{"smiles": "Cc1nc2c(c(N[C@@H](CO)C(N)=O)n1)Cc1ccccc1OC2", "Inhibition": 15.48}
{"smiles": "CCC(NCc1ccccn1)c1ccccc1OCC(=O)NC", "stereo": "stereo not shown", "Inhibition": 4.178}
{"smiles": "Cc1nn(-c2ccccc2)c(C)c1CNC(=O)NC1CC(=O)N(C)C1", "stereo": "stereo not shown", "Inhibition": 6.529}
{"smiles": "O=C(NCC1CCN(Cc2ccsc2)CC1)NC1CC1", "Inhibition": 15.69}
{"smiles": "CCN1CCc2nc(N3CCOCC3)nc(NC(C)C)c2C1", "Inhibition": 15.38}
{"smiles": "COCC1c2nnn(CC3CC3)c2CCN1C(=O)Cc1cccs1", "stereo": "stereo not shown", "Inhibition": 15.99}
{"smiles": "CN1CC(Nc2ccc(Br)cc2C#N)CCC1=O", "stereo": "stereo not shown", "Inhibition": 12.2}
{"smiles": "Cc1ncc(CN2CCC(n3cc(-c4ccc(F)cc4)nn3)CC2)cn1", "Inhibition": 6.361}
{"smiles": "COc1ccc(C)cc1CN(Cc1nc(C)c(C)o1)C1CCN(C)C1", "stereo": "stereo not shown", "Inhibition": 14.64}

For reference, 2 entries once more:

For Cc1c(C(=O)N2CC(=O)N(C)C2)nnn1-c1cccc2cccnc12 the result was 12.09%.
For CCC(NCc1ccccn1)c1ccccc1OCC(=O)NC (stereo not shown) the result was 4.178%.

Data taken from ChEMBL document CHEMBL3988442, “University of Dundee, Small-Polar-MMV Screening Library” (2021).